Positions count from the first letter of the chain named. Numbers in names are those of the source. No constants are given. Whether binding was seen depends on the method and setting.
T1: MBP-Kap114 (S. cerevisiae, UniProt P53067 1-1004)
T1 construct: TEV site between MBP and Kap114; pMalE modified with a His6-tag immediately N-terminal of MBP and a TEV site after MBP; held on amylose resin in the pull-downs; also called immobilized MBP-Kap114; iK; source: E. coli BL21 Gold, purified (amylose beads, HiTrap Q, SEC); not shown: MBP, N-terminal, kept
T1 sequence: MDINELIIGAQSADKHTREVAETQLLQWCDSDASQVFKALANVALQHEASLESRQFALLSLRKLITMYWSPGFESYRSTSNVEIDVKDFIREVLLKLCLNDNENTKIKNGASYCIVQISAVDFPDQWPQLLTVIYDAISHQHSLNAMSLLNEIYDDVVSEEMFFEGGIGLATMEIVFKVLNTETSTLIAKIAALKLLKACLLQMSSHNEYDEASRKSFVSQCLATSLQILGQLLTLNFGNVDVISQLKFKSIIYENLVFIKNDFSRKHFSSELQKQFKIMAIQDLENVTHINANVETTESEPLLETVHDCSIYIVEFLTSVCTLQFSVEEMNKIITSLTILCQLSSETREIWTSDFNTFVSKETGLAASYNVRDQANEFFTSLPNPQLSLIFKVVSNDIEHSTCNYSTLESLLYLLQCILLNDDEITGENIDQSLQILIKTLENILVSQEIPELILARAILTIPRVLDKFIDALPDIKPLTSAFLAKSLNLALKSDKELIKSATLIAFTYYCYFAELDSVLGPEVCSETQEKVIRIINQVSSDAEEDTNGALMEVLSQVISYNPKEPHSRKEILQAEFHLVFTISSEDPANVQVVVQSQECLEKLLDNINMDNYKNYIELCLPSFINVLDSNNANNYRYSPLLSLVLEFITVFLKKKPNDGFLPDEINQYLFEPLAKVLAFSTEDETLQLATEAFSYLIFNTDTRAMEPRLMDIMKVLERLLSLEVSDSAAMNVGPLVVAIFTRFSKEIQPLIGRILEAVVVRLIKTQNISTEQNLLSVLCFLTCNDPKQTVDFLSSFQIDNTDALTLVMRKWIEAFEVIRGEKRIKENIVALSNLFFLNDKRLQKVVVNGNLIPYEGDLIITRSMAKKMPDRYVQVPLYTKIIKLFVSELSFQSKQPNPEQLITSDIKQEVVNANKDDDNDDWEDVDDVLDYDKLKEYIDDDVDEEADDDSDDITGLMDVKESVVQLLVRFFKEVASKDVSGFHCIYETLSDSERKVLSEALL

T2: Kap114 (S. cerevisiae, UniProt P53067 1-1004)
T2 construct: also called Sc Kap114; source: E. coli, expressed as GST-Kap114, purified (Glutathione Sepharose 4B, on-column TEV cleavage, SEC)
T2 sequence: T1 sequence

B1: Nap1 βERQ (E288A/R290A/Q292A) (protein, UniProt P25293 1-417)
chain: MSDPIRTKPKSSMQIDNAPTPHNTPASVLNPSYLKNGNPVRAQAQEQDDKIGTINEEDILANQPLLLQSIQDRLGSLVGQDSGYVGGLPKNVKEKLLSLKTLQSELFEVEKEFQVEMFELENKFLQKYKPIWEQRSRIISGQEQPKPEQIAKGQEIVESLNETELLVDEEEKAQNDSEEEQVKGIPSFWLTALENLPIVADTITDRDAEVLEYLQDIGLEYLTDGRPGFKLLFRFDSSANPFFTNDILAKTYFYQKELGYSGDFIYDHAEGAEISWKDNAHNVTVDLAMAKARNKTTKQVRTIEKITPIESFFNFFDPPKIQNEDQDEELEEDLEERLALDYSIGEQLKDKLIPRAVDWFTGAALEFEFEEDEEEADEDEDEEEDDDHGLEDDDGESAEEQDDFAGRPEQAPECKQS
B2: Nap1 FL (C200A, C249A, C272A) (natural protein, S. cerevisiae, UniProt P25293 1-417, looked up)
chain: B1 chain with A288E, A290R, A292Q
notes: Nap1 (nucleosome assembly protein 1), S. cerevisiae, full length (FL), with C200A, C249A, C272A for specific labeling on 414C; pHAT4 vector, gift from Sheena D'Arcy; Counted as a dimer (Nap1_(2)) in all molar ratios; alone a mixture of dimers and tetramers; also called Nap1_(2); Nap1_(2) FL; source: E. coli BL21 gold, purified (Ni-NTA, TEV cleavage, HiTrap Q, Superdex S200)

Columns and labels:
[1] = target: T1, MBP-Kap114; assay: pull-down; MBP-Kap114 (WT or mutant; or MBP alone) 1 µM immobilized on amylose resin, equimolar Nap1_(2) ± H2A-H2B (1 or 2 µM) ± Ran^GTP; Assay Buffer (20 mM HEPES pH 7.4, 150 mM NaCl, 2 mM MgCl2, 10% glycerol, 2 mM DTT), 30 min at 4°C; Coomassie-stained SDS-PAGE; both purified
[2] = target: T2, Kap114; assay: condition: only with H2A-H2B in excess (1:1:2 molar ratio K, N, H); SEC-MALS; 1:1:2 mixture of Kap114, Nap1_(2) and H2A-H2B (H2A-H2B in excess); Assay buffer without glycerol; both purified

Binder | binding [1] | binding [2]
B1 | no binding (tested: 1 µM) | 
B2 |  | no binding

— paper PMC11602657, “Nap1 and Kap114 co-chaperone H2A-H2B and facilitate targeted histone release in the nucleus” (The Journal of Cell Biology, 2024)
